T1: N-terminal Myc-tagged EhRab8A (3Myc-EhRab8A) (E. histolytica)
T1 sequence: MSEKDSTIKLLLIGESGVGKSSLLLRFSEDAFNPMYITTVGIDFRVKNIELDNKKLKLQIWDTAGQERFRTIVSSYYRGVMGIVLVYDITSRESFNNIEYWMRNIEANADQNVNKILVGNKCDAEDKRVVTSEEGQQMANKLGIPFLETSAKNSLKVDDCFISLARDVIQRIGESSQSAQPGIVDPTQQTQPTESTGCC

The chains behind the UniProt entries cited, without tags or fusion partners. Where a name states a change or a piece, a line headed by the entry shows the natural chain unless it says otherwise.
UniProt C4M6P6: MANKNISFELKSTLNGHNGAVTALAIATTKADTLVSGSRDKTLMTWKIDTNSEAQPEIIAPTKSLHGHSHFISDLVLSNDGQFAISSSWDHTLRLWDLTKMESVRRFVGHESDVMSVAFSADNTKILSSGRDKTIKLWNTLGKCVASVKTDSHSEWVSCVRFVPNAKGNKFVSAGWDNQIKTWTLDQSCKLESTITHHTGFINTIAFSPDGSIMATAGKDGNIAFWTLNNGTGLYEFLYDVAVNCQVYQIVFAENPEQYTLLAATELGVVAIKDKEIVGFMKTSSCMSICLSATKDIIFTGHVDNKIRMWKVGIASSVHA
UniProt C4LTS8: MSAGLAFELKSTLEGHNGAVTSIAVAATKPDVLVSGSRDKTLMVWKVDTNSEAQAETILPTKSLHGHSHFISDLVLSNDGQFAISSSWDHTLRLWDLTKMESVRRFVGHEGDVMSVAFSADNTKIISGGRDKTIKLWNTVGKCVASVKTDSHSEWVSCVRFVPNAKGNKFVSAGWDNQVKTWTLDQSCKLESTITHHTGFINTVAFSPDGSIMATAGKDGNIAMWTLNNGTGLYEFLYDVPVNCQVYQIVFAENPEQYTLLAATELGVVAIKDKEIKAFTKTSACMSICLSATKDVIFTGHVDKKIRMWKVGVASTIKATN

B1: Lysophospholipid acyltransferase 1 (EHI_086180) (protein, UniProt C4M373 1-487)
chain: MLDSFVTTSAQLIGFPEDVFRFLFAFIVEVPISIICRYIPLSTDMKYLIYGIIGIFISFFVYSTMTYCVLITMIPVYLIMKYVPTRKGAYACFGISLGYLLTIHIKRMIDNYLGYDLDFSSVQMVLTIKFTTFAFSVCNAQDKEYKCSEHTEKHNIYNYPSILQFFGYTFFFPAFFSGPSMEYTDFVSFIDMSMFKEFNNKLPPINMKAVGTVTLRLILIIVFHLVSIKCSIFEFCEYYILGHKEESTCWFKLLMILLYVEFIKLRYYFVWEFGELLSILMGFGYSGMKDGETTWEGFKNVDIWKMETSDSVRQIVSNWNIQTERWLRYYVYERLNQNKTLAPYKSLLTNMVSAFWHGLYPGYYIAFGTMTLQQKFQYMLYTQVLPLLRNKYGEKSIPIYLYHTFNYIYTPFAQMYCFVSFVLLSFSATFTVYSYTYFIPHIIALSGWMYLSYFPVYKKPSRQETVETKPKEVSTGSPATKETTKSE
B2: EhCdc50 (EHI_142740), endogenous (protein, UniProt C4M6E4 1-316)
chain: MSEKVKGLVSKTFSTSFKQQEMKSCVPLYRPLTVILFFLITGIIFIPIGIAVFVVTNNCQEYSVKYVGEGSALTCKQGATCEFQFNIPKPMKTPVYVYYQLTNFYQNHREYLRSRSNKQLKGDPISTYSQLSDCTPLISLNNSKNPHMFYEPCGLVAASFFNDSFEITMQPEKESSSVLLELNKENINWKSDKKLFGEPAERNGIKVVNSYTDPDFINWMRPAVSSTFRKLTGIIENVEEVKGNVTVKVVNNFPVESFKGTKTIILATTSVFGSKNPALGIIYMATGGVFVIIAILLFILTRVSPRKFADKRFLRW
B3: MIT domain protein (EHI_093860) (protein, UniProt C4LYH7 1-671)
chain: MSLDKAITVAEEAINFDNLEDDYNAISKYKEAVEYLKLAHSDPSNAESYSVILNKIMEYNERIEYLAELHPGDTKFEELVKAPVVLDQPLSNNIPTQAQVLEEPKPIIIQPIEQSKPIEQSKPIEQSKPIEQSKPIEQSKPIEQSKPQNVEPILNQQQEKPQNVEPILNHQQEKPQEIIKPLFPEPSQPIEEKKDSTVIEQGEEQQNKSKVLVGAVKVMPTTDISQQPTNSKVNQPEERQVQPTFNIVQSTPMPTTGMVPVMMPTTQPVINPMMTSVNGYLPVITPQGPMLMPTTQPPSLQQPVFPHFGTEPNSSLIGGPIIPITSAPIQSVQEQKPKIPKQSTTALRTAFIRSKLSLEHPSTLNGLKAWKLAKPLAEKGKEFDSQTKYADALAYYETALDYFAQALRAPELTDNMKKQLKEEVKAYLTRAEQIKPVVVEFLKQNPTYFGEVDNEDSQRLETCIVCNKRIEGEFVSALGYNYHPQCFVANVNCKLCGKPFTFPKMEFKIYNDQAYHPLCFEGVTGLEKEITYTPTFQHGTIFYKVKLPKKIFNVNDSFMYDITIDNSTNCCINYIETGLLCEETRFSRGFSGEMKGETTKTEMAKKKIMFEGKVMRNGVITKSEMFSIGMVRPSHHNDIMFYRGYKFVVSLKVSGVALGPKEIVFPIYINE
B4: Nuclear pore protein (EHI_118780) (protein, UniProt C4LYM6 1-341)
chain: MSKQQSNSPVFPLGEPKTFQDTISGIEGYSSQNGILVGVSSWDKTCKAFLVNSPTQTQIVGSVNCNSPLTSICKFCKFCESQFLVGSLNGGVYLWNVQQNSLQQVGQFNDCITSMKPFPETNSIVISSLDGSLGLLDLNSGNISKMPVNNKIICMDAKYPYITFHTPNKVEVFNIQSGKLMTDTLIGGQQSTVNSSVQCIAVFPDRKGIVYGGADGRANVLHFENKSNQYTYAFKAQHKKISTTQTYYYPVNSISFYNETIFLTAGSDGVINIWDKNKKSLVNTLTSPIQNCPITTADFICENKFLAYSVGYDWHQGVEGLLQQQVSVPVIKVVDDPLVRL
B5: EhCP-C6 (EHI_127030) (protein, UniProt C4LWX8 1-503)
chain: METVTTDIIRNGTQQVVNVINQHTSSHSKPIKSSFVLSNLPPVKFQGKRSTCWVFSTIFQLEYAYNKDLSNKYISLNEQAYAIDAVEACKADDYKGCPKKRFDYSTNTGYPQFLWRYSSLSNKVLPESICEYQTNKDNEWKCDGKEQAQKTNALKFDVKSIATFRTIEELKEAVKQGPVSLVLVLVQGQYIIQVDNKDNILGKIPGAEIKECPENSNLCVYIPSERITNDGEYIIPERANNRYGYHVVTIVGYNDNYITKDNTCGAFIIRDSTDDTLVYGSHSYQYLKGEHSEWDERTLCANVYNPLGWDSCVYMNPGPTGDSKVVKYDLKATCLNEKYIKENVLNTRKPTEFKCINSDFCDTTKRYFISSTSRSQHSSYLFTITFLEVNPNNTDEQKEITFTDFPLDSYNKFIQPIDSQIELIQTNTTFCGYRSLPYIVLDKISMAKTQDSYYGVQFNIEWDKQSYPNNGEFDYSQILKSIHEFPEYKGFLGPEPYQVRYED
B6: Translation initiation factor (EHI_180410) (protein, UniProt C4M290 1-286)
chain: MATINFNIHYITYFGQDLYVCFNDSECVPMNWTNGHMWVGKKTINGPTHLEWYYLVKVHNKIQRIEEVHGLREYNFNGNSASVRDWWYYPELTYVTDTSDEQGVINKQGLDEKTLKAKKEAEEKAKKEAEEKAKKEAEEKAKKEAEEKAKKEAEEKAKKEAEEKAKKEAEEKAKKEAEEKAKKEAEEKARKEKSEKEKQERLKQLPSLDESVGFYPVQRSKGSPSSSDRSSERSSERNESNRLKRSSQIQEQIRKYEELAKSSQEDAQKSIRHTSSSKRVSKTFGK

These are yes or no findings as the source states them, for the method shown. Binding seen in cells or lysates may run through a third protein. A yes stands for co-enrichment or nearness to the bait. Other partners may have been found. Tags and fused reporters may be left off the sequences shown.

The first experiment deals with T1, N-terminal Myc-tagged EhRab8A (3Myc-EhRab8A) (E. histolytica). The experiment in a line: affinity purification with mass spectrometry; cells cross-linked with 2 mM DSP, p13 fraction in 2% digitonin; Myc-EhRab8A precipitated with anti-Myc agarose at 4 °C, washed with 0.5% digitonin, eluted with Myc peptide; 35 and 40 kDa bands of the silver-stained gel analysed by LC-MS/MS; mock cells as control.
With B1, the binding entry was “binds”.

Take B2: the binding result is “binds”.

As to B3, the binding result was “binds”.

For B4, the binding entry is recorded as “binds”.

As for B5, the binding result is recorded as “binds”.

Turning to B6, the binding result was “binds”.

The target is the same in a further experiment. The description is as above. This is another data set of the same source.
For “Guanine nucleotide-binding Ribosomal protein (EHI_171280) (from UniProt C4M6P6)”, the binding entry is listed as “binds”.

As for “Guanine nucleotide-binding Ribosomal protein (EHI_050550) (from UniProt C4LTS8)”, the binding entry is “binds”.
